Laboratory results as given in PubChem BioAssay AID1347423 (Functional Genomics Laboratory (NCATS/FGL), 2020).
Screen size: about 52,000 sequences; about 210 (0.4%) were called active.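 Rule for the calls: active = gene whose silencing raises cell survival under the drug, median off-target-corrected z-score across its silencing RNAs 2 or more; inactive = the rest.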 Some of the results follow.

assay: Resistance to Poly (ADP-Ribose) Polymerase inhibitor: Gene Identification via Genome-wide siRNA Screen; conditions: mouse BRCA2 R2336H ES cells, olaparib, CellTiter-Glo viability; stronger effect = higher value
Method in brief: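 Mouse BRCA2 R2336H ES cells were reverse-transfected with siRNA (20 nM final), treated at 48 h with 500 nM olaparib, and read by CellTiter-Glo after 72 h. Scores: MAD-based z per siRNA, median per gene, seed off-target correction.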

Row | Sequence | z-score
1 | GGGACUUUUUUAGGUGAAUTT against Npl | inactive: 0.251
2 | GGAAUGGUAUCAGACUUCUTT against 9930022N03Rik | inactive: -2.29
3 | GGAACACCUCUGGAAAUCUTT against Pex12 | inactive: 0.279
4 | GCACGGAAGACUUACGAACTT against Cstf3 | inactive: -0.602
5 | GGAUGUGACUCAGAUUGGGTT against Gm905 | inactive: -0.149
6 | CUAGUUGACUUCUGGUACUTT against Olfr915 | inactive: -0.538
7 | GGAUCUACGCAAGCAAGCATT against BC019806 | inactive: -0.852
8 | GCUAUAGUUACUAAACUACTT against Flt1 | inactive: 0.648
9 | GGACAAAGUGGUUAUGUGGTT against Rims1 | inactive: 0.332
10 | GGAAAGGUCAAGCUGGUUCTT against Smbp | inactive: 1.11
11 | CGUUCAUAAUGACUCCGUUTT against Slc39a10 | inactive: -0.872
12 | GGCCUUUCUGGAGAAGAUGTT against Stfa3 | inactive: -0.717
13 | GCCAUUAAGAUCGCUUACUTT against Sepp1 | inactive: -1.04
14 | CCUGGUUAAAGGUUAUCCATT against Commd7 | inactive: -0.377
15 | GGAAUUUGUUCUCUUAUCGTT against Anapc1 | inactive: -1.69
16 | GGUUACAGAAGAAUUAGAATT against Esrrbl1 | inactive: 0.199
17 | GGGUUUAGCCAUCUGUUUCTT against AW049765 | inactive: -0.11
18 | GCUCAUGGAUACGUCACUATT against Map2k6 | inactive: -0.0632
19 | CCAAUAACUCUAAAUAGGCTT against Trhr | inactive: -0.0695
20 | GGAGCAGUAUAUCCUACAUTT against Olfr510 | active: 0.104
21 | GGACGUGUUCGGAAACCUATT against Psmc3ip | inactive: 1.65
22 | GGAAGAAAAACUGAAGAGATT against Ctsr | inactive: -0.608
23 | GGAAAUGAGUCAACUGUACTT against Pappa | inactive: -0.13
24 | GCUAAUCCAGGACUGUUUATT against Trim14 | inactive: -0.141
25 | CGGUGCGAUCUCUCAAAGUTT against Cryba4 | inactive: 2.14
26 | GAAAACCUACCAGUGGGUGTT against Thsd6 | inactive: 0.526

Row | Sequence | z-score
27 | CGAACUCUGCUACUACACATT against 2210010B09Rik | inactive: -1.46
28 | CCUGAUGGGUUACCUAUGCTT against Col25a1 | inactive: 0.174
29 | GCGUGUCCUAUAGCAUCUGTT against Ela1 | inactive: 2.9
30 | GGAGAUACCGGGAAUCCAATT against Rpl19 | inactive: -3.33
31 | GGGUAAAUAUGUGGAAAACTT against Zfp503 | inactive: -0.133
32 | GGGAAACAAAUUGUUUGCATT against Dyx1c1 | inactive: 0.357
33 | CCGCUUCCAUCACAACAGUTT against Zc3hav1 | inactive: 0.887
34 | GGAAGGUACUCUGAUGGAATT against Ptpn13 | inactive: 1.2
35 | GUGGCUAUCGGCACAACAUTT against Gpha2 | inactive: 0.455
36 | GGAACUACCUCUUCAGACUTT against Sema5b | inactive: -0.863
37 | GUAGUAGUCCUAGGUCUACTT against Spag8 | inactive: -0.284
38 | GCCAACAAUUACGUAUCAATT against Papolg | inactive: -0.3
39 | GGCCCUCAAACAGUGCAAATT against 1620401E04Rik | inactive: 1.23
40 | CCUCAUUGUUUUAUACCCUTT against Olfr1140 | inactive: 0.748
41 | CCCAACAAUGCUGCACAUGTT against H1foo | inactive: -1.06
42 | GGUGACUAUGAAGAAAAAATT against F13a | inactive: 0.531
43 | CCUUGCCUUUACUACCAGUTT against Olfr15 | inactive: -0.924
44 | GGAGAAAGAGCAGAGUCUGTT against Cep2 | inactive: -1.34
45 | GGAGAAGAAGACCAAUGAGTT against Rabgef1 | inactive: 1.38
46 | GCUUUAUAGGAACCUAAACTT against D430044G18Rik | inactive: 0.629
47 | CCUCCCAAUUCCAUUGGAATT against Serpinb3c | inactive: -0.801
48 | GGAUUCCAGAACAAACACATT against Plekhb2 | inactive: -0.979
49 | GGCUUACUUCCAAAGACUUTT against Naalad2 | inactive: 0.112
50 | GGGUGUACCUUAUGUAUUATT against Prpf4 | inactive: -1.05
51 | GGAAACUGUUGAAUCUUGUTT against Smad5 | inactive: 0.899
52 | GCUCUAUCAAGCUGACGGGTT against 2610111M03Rik | inactive: -0.199

Laid out differently: results already given.
Row	Sequence	z-score
28	CCUGAUGGGUUACCUAUGCTT against Col25a1	inactive: 0.174
29	GCGUGUCCUAUAGCAUCUGTT against Ela1	inactive: 2.9
30	GGAGAUACCGGGAAUCCAATT against Rpl19	inactive: -3.33
31	GGGUAAAUAUGUGGAAAACTT against Zfp503	inactive: -0.133
32	GGGAAACAAAUUGUUUGCATT against Dyx1c1	inactive: 0.357
33	CCGCUUCCAUCACAACAGUTT against Zc3hav1	inactive: 0.887
34	GGAAGGUACUCUGAUGGAATT against Ptpn13	inactive: 1.2
37	GUAGUAGUCCUAGGUCUACTT against Spag8	inactive: -0.284
38	GCCAACAAUUACGUAUCAATT against Papolg	inactive: -0.3
39	GGCCCUCAAACAGUGCAAATT against 1620401E04Rik	inactive: 1.23
40	CCUCAUUGUUUUAUACCCUTT against Olfr1140	inactive: 0.748
41	CCCAACAAUGCUGCACAUGTT against H1foo	inactive: -1.06
42	GGUGACUAUGAAGAAAAAATT against F13a	inactive: 0.531
43	CCUUGCCUUUACUACCAGUTT against Olfr15	inactive: -0.924
44	GGAGAAAGAGCAGAGUCUGTT against Cep2	inactive: -1.34
45	GGAGAAGAAGACCAAUGAGTT against Rabgef1	inactive: 1.38
46	GCUUUAUAGGAACCUAAACTT against D430044G18Rik	inactive: 0.629
48	GGAUUCCAGAACAAACACATT against Plekhb2	inactive: -0.979
49	GGCUUACUUCCAAAGACUUTT against Naalad2	inactive: 0.112
51	GGAAACUGUUGAAUCUUGUTT against Smad5	inactive: 0.899
52	GCUCUAUCAAGCUGACGGGTT against 2610111M03Rik	inactive: -0.199

The results go on.

Row | Sequence | z-score
53 | CCUUUACACCACUCUAUUUTT against 9130014G24 | inactive: -0.43
54 | GGUUUGUGCUCUUUAUUUGTT against BC011487 | inactive: 0.621
55 | GCGAUUGGCCCAAAAAUGCTT against Olfr1151 | inactive: -0.53
56 | GCCAGGUCUGAAGAACUGUTT against Rap1b | inactive: -0.522
57 | CGACAUAGCUACCAGUCUGTT against Indo | inactive: -1.94
58 | GGUUUGGCAGAAGUGCAUGTT against Npff | inactive: -0.195
59 | GGUCCCAUUCAGUGUGUGUTT against Cdk10 | inactive: -0.19
60 | CCCUGUUAUCCGAUUGGAUTT against C730040N12Rik | inactive: -0.37
61 | UGCCAUGAGUCAGCUUUUGTT against Olfr1301 | inactive: 0.566
62 | GGUGAACAACUUUGUCAUCTT against 2610110G12Rik | inactive: -0.361
63 | GGAAGUUGGUUAUACUCGUTT against Wins2 | inactive: -0.122
64 | GCGUGCAACAUGUUCUGUATT against Wfdc13l1 | inactive: -0.802
65 | GCCUGAUACCUUGAAGGAATT against 1810019P04Rik | inactive: -0.461
66 | GCACAACCAAUUACGUGGCTT against Gpnmb | inactive: 0.38
67 | CCAACUACUAGAAUGUAUCTT against A830043J08Rik | inactive: -0.509
68 | GGAACAGCCUAUGUGGUCUTT against 0610009D07Rik | inactive: -2.91
69 | CCGGUCAUCUUUCUAUUAUTT against 9530008L14Rik | inactive: -0.162
70 | CGGAUUACUUUGUAAAGAUTT against Il17rd | inactive: 0.122
71 | GGUGAUGAUGAUGGGCAACTT against Cdkn2a | inactive: -1.79
72 | GGAUGAGUUCUUCUUCGGCTT against D15Wsu75e | inactive: 0.55
73 | GGAACAUAGAUGCGUGUGGTT against Rprm | inactive: 0.332
74 | CCUUAGAGAGUAUGAUUAUTT against 4933405O20Rik | inactive: -1.11
75 | GGGAGGUUCCUAUUGAAGGTT against Unc5d | inactive: -0.824
76 | GGGUCAUUCUGUUACUCUUTT against Taar7a | inactive: 0.372
77 | GCCGACAUCUUUGCUCAGATT against 4632413C14Rik | inactive: 1.01
78 | GGGCUCAGAGACAAACUGUTT against Tnr | inactive: -1.19

Row | Sequence | z-score
79 | GGGAAUAUGUGAAACAGACTT against Syk | inactive: -1.61
80 | CGAAGGACAAAAUAUCAGCTT against 4930517G15Rik | inactive: -0.16
81 | CGAGGAGCCUGAAAUAUGGTT against Exosc2 | inactive: -1.84
82 | GGACUACUCUGCCAGAUGGTT against BC048651 | inactive: -1.74
83 | GGUCUUUUCAGAAUAAACUTT against 4930455C21Rik | inactive: 0.694
84 | GGAGAACGAGUUGUAUAGCTT against Dok2 | inactive: -1.09
85 | GCCGAUUGUCCUAUCUCCATT against Cmar | inactive: 0.475
86 | GCAUGCUAGAAGCUAAAAATT against Golga3 | inactive: 1.59
87 | GGAGAGAUGAUACUGUUGGTT against Olfr1295 | inactive: 0.0734
88 | GGAGAGAAACUGCGUGUAATT against Sla | inactive: 1.3
89 | GCAACUCAGCUGUUGUGAGTT against Ifitm2 | inactive: -1.83
90 | GCCCAAACAUAUUAAACUUTT against Ubap2 | inactive: -1.17
91 | CCCGAACAGAGGAUCGAAATT against Cxadr | inactive: -0.162
92 | GGGCUUAUCUAUGUCCUUCTT against Olfr59 | inactive: -0.589
93 | CCAUCAAGAAUGUCCGUGATT against Pkm2 | inactive: 1.12
94 | CCGUGAUAACAACAUUUGUTT against Olfr750 | inactive: -0.368
95 | GCAAGCUUAUAUGUUUGACTT against Ggh | inactive: 0.891
96 | GGCUGAGAUUAUCACUGUCTT against D11Wsu68e | inactive: -0.19
97 | GGCAUCUUAUGGCCUAAAATT against Rnf31 | inactive: -0.542
98 | GGAAUCAGAUACAAAGGAGTT against 1810057E01Rik | inactive: -1.06
99 | GGAGGCCCUCAUGAAACGUTT against 1500010J02Rik | inactive: 0.181
100 | GGACAGAAUCCUCUCCAGGTT against Tas1r1 | inactive: -1.85
101 | CGGAAUGUACACCUACUUUTT against Gm50 | inactive: 0.788
102 | GGAUCUCCGGACAUUUAAGTT against Gm466 | inactive: 0.998
103 | GGAACUGGUGAAGCUCACUTT against BC002236 | inactive: 1.17
104 | CCGGAGCUUACUGGUGACATT against 4930432J16Rik | inactive: -0.0493
